# Percent effect of library compounds

Chains of the proteins cited; added tags and fusions are not shown. Residues count along the entry.
UniProt P9WFT3, whole entry: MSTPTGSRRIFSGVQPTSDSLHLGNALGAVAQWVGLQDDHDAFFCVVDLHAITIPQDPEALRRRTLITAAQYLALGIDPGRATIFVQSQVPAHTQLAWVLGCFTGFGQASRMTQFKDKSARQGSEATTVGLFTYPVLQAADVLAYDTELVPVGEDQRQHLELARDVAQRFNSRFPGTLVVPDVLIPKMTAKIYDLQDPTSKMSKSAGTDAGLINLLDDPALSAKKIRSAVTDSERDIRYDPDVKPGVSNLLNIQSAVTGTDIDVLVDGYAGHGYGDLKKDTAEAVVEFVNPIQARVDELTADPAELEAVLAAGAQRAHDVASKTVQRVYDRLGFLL
UniProt I6X8D2, whole entry: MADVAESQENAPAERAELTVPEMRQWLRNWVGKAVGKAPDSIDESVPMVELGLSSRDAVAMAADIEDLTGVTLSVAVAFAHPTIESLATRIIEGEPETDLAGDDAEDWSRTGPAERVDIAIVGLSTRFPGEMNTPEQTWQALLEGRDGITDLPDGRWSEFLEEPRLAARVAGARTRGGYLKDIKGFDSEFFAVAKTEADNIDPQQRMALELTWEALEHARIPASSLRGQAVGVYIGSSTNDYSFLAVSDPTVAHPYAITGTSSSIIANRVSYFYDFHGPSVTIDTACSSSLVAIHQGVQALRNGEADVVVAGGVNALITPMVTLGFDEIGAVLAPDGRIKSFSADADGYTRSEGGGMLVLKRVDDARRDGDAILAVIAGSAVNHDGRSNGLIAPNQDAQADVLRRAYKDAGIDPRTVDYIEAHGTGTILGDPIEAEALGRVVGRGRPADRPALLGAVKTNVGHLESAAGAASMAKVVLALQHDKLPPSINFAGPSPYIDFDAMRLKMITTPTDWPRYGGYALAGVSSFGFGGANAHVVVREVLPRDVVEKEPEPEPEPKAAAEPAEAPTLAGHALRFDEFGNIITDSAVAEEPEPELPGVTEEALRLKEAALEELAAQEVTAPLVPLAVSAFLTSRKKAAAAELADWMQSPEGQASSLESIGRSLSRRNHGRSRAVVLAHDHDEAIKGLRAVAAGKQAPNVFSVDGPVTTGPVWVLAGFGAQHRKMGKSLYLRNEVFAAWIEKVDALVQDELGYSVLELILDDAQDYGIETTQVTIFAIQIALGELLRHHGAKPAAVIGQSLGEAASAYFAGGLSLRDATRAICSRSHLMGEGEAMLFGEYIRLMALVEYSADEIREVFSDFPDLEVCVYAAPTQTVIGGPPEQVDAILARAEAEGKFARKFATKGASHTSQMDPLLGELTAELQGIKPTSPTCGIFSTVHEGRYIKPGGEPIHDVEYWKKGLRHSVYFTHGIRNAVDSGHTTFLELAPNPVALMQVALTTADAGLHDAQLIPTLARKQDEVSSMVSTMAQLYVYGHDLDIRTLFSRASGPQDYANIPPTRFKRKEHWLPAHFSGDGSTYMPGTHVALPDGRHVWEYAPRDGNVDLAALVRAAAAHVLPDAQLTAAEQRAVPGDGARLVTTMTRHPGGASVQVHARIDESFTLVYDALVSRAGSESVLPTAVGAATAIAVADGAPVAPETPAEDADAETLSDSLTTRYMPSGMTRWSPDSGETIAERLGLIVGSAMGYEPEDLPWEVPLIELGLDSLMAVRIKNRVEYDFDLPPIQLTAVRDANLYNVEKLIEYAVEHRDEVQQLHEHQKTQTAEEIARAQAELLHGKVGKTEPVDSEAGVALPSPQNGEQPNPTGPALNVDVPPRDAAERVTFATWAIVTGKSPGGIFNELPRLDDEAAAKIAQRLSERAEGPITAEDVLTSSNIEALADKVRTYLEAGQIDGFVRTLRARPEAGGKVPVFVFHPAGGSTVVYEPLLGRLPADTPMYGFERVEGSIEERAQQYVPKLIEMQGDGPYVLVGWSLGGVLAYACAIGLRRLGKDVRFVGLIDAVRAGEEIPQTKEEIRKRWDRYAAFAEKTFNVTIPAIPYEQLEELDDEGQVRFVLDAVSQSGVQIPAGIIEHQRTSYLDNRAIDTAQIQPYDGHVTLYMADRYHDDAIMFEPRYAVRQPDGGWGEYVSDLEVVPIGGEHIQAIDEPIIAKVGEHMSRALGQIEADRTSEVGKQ
UniProt A4I591, 1-473: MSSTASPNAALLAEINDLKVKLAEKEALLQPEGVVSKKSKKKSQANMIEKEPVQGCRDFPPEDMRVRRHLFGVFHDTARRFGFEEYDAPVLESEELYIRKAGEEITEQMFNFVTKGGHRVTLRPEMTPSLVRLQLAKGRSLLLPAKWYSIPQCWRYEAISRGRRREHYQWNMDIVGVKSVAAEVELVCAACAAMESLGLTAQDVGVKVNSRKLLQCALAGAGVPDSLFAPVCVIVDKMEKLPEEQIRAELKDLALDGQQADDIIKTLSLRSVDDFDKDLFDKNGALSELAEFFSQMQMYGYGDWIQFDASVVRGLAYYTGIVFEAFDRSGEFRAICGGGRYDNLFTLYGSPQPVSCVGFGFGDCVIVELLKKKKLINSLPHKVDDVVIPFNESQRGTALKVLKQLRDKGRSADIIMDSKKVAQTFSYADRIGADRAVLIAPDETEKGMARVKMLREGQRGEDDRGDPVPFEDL
UniProt Q8IDJ8, 1-583: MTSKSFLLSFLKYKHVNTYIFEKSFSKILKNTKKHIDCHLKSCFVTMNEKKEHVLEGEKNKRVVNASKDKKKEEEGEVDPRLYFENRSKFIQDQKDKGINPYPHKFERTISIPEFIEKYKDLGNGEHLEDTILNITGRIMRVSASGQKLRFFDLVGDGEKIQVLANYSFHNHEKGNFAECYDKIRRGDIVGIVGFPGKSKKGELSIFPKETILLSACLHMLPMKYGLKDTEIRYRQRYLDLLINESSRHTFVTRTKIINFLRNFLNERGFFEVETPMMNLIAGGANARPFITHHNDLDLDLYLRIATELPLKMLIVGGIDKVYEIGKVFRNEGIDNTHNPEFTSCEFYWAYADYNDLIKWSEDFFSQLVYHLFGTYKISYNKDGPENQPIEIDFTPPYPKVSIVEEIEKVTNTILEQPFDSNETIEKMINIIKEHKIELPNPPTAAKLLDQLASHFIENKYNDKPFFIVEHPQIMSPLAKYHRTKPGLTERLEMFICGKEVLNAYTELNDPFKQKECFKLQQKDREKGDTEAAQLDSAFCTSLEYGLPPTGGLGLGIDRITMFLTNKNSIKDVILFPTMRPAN

Measurements from “University of Dundee, Small-Polar-MMV Screening Library” (2021), ChEMBL document CHEMBL3988442.

MtTrpRS: 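Enzyme assay of tryptophanyl-tRNA synthetase; the read-out is not stated. Target: Tryptophan-tRNA ligase, Mycobacterium tuberculosis (UniProt P9WFT3). Tested at 10 µM. Higher most likely means stronger inhibition; the record gives no direction and few retests gave an IC50. Size under these conditions: about 65,000 compounds, about 64 of them at 50% or above in at least one test.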
Pks13 thioesterase: 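Enzyme assay of the thioesterase domain of polyketide synthase 13; the read-out is not stated. Target: Polyketide synthase Pks13, Mycobacterium tuberculosis (UniProt I6X8D2). Compounds at 30 µM. The record gives no direction; the compounds picked for IC50 retests had high values, so higher reads as stronger inhibition. About 67,000 compounds were tested under these conditions; 0.46% (about 300) showed 50% or more at least once.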
LiHisRS: 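Enzyme assay of histidyl-tRNA synthetase; the read-out is not stated. Target: Histidine-tRNA ligase, Leishmania infantum (UniProt A4I591). Concentration: 30 µM. Direction is inferred from retests: higher values go with stronger inhibition. The assay is labelled LdHisRS but filed under L. infantum. About 69,000 compounds were tested under these conditions; 0.6% (about 410) showed 50% or more at least once.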
PfKRS1: 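Enzyme assay of the cytosolic lysyl-tRNA synthetase in 384-well plates, read by luminescence. Target: Lysine-tRNA ligase, Plasmodium falciparum 3D7 (UniProt Q8IDJ8). Compounds at 30 µM. Direction is inferred from only a few compounds that gave an IC50; most scored high, so higher reads as stronger inhibition. Size under these conditions: about 69,000 compounds, about 49 of them at 50% or above in at least one test.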

Values are the deposited “Percent Effect”, in %. The record does not define 0% and 100%; most values in the screen are far below 50% and negative numbers occur (in some assays of this library far below -100). Compounds were drawn at random from those tested, without regard to their results.

* Cc1ncsc1CNc1cc(N2CCCC2CO)ncn1 (stereo unspecified) : MtTrpRS: 24.13%; Pks13 thioesterase: -25.83%; LiHisRS: 6.838%; PfKRS1: -0.6699%
* CO[C@H]1CCN(C(=O)c2ccc3oc(C)cc3c2)C[C@@]12CCCO2 : Pks13 thioesterase: 15.6%; LiHisRS: 15.94%; PfKRS1: 3.062%
* O=C(c1cc(F)ccc1O)N1CCN(C(=O)C2CCC2)CC1 : MtTrpRS: 9.02%; Pks13 thioesterase: -28.3%; LiHisRS: 18.99%; PfKRS1: 4.468%
* c1cc(C2CCN(Cc3nc(C4CC4)no3)CC2)[nH]n1 : MtTrpRS: -1.331%; Pks13 thioesterase: 5.982%; LiHisRS: 3.226%; PfKRS1: -3.039%
* Cc1noc(C)c1CN1CC[C@H]2OCC[C@@]2(C(=O)N2CCCC2)C1 : MtTrpRS: -1.91%; Pks13 thioesterase: -4.377%; LiHisRS: 6.422%; PfKRS1: 6.087%
* CCCC(=O)N1CCC(O)(Cn2c(CC)nc3ccccc3c2=O)CC1 : MtTrpRS: -0.4181%; Pks13 thioesterase: -31.38%; LiHisRS: 27.78%; PfKRS1: 5.764%
* CN(C)c1nc2c(c(N3CCC(O)CC3)n1)CN(CC1CCOC1)CC2 (stereo unspecified) : MtTrpRS: -3.958%; Pks13 thioesterase: 11.04%; LiHisRS: 8.197%; PfKRS1: -0.05562%
* COc1ccccc1CC(=O)NC(CC(=O)O)c1ccc(F)cc1 (stereo unspecified) : MtTrpRS: -2.387%; Pks13 thioesterase: -29.06%; LiHisRS: 17.33%; PfKRS1: 4.056%
* Cc1ccc(Nc2ncnc3c2CCN(CC2CCOC2)CC3)cc1 (stereo unspecified) : MtTrpRS: -1.984%; Pks13 thioesterase: 0%; LiHisRS: 7.895%; PfKRS1: 4.381%
* O=C(c1n[nH]cc1Cl)N1CCOCC1 : MtTrpRS: 3.088%; Pks13 thioesterase: -10.88%; LiHisRS: 18.58%; PfKRS1: 0.9262%
* CN(Cc1ccco1)[C@@H]1CN(CC2CCOCC2)[C@@H]2CCCO[C@H]12 : MtTrpRS: -1.744%; Pks13 thioesterase: 0.7514%; LiHisRS: 25%; PfKRS1: 5.056%
* Cc1nc(CN2C(=O)COC3(CCN(CC4CC4)CC3)C2C)cs1 (stereo unspecified) : MtTrpRS: 5.006%; Pks13 thioesterase: 1.423%; LiHisRS: 20.21%; PfKRS1: 1.044%
* C[C@]1(O)CCN(Cc2cncs2)C[C@@H]1Oc1cccc(F)c1 : MtTrpRS: -0.9167%; Pks13 thioesterase: -9.035%; LiHisRS: 8.571%; PfKRS1: 2.579%
* Cc1ccc2c(c1)OCCCC2NCc1nccn1Cc1ccccc1 (stereo unspecified) : MtTrpRS: -5.317%; Pks13 thioesterase: -40.89%; LiHisRS: 0.8547%; PfKRS1: 1.328%
* O=C(NCCNS(=O)(=O)c1cc(F)cc(F)c1)c1ccoc1 : MtTrpRS: -2.033%; Pks13 thioesterase: -19.44%; LiHisRS: 18.18%; PfKRS1: 5.572%
* Cc1noc([C@@H]2C[C@H]3OCC[C@H]3N(C(C)C)C2)n1 : MtTrpRS: 0.8834%; Pks13 thioesterase: -1.786%; LiHisRS: 22.34%; PfKRS1: 3.821%
* CC(C)c1ccc2c(c1)C1(CC(=O)Nc3[nH]ncc31)C(=O)N2C (stereo unspecified) : MtTrpRS: 2.113%; Pks13 thioesterase: -12.02%; LiHisRS: 15.79%; PfKRS1: -4.635%
* CC(C)N1CCC(Cc2cncc(-c3cccc(C(=O)O)c3)n2)C1 (stereo unspecified) : LiHisRS: 17.71%; PfKRS1: 1.194%
* O=C(CCSc1ccccc1)NS(=O)(=O)c1ccc2c(c1)OCCO2 : MtTrpRS: -1.319%; Pks13 thioesterase: 10.63%; LiHisRS: -5.66%; PfKRS1: 1.853%
* CN1C(=O)CO[C@H](c2ccc(NC(=O)Nc3ccccc3)cc2)[C@H]1CO : MtTrpRS: -5.69%; Pks13 thioesterase: -6.365%; LiHisRS: 14.86%; PfKRS1: 2.648%
* CC(C)N1CCc2c(CN(C)Cc3ccco3)cncc2C1 : MtTrpRS: 0.1049%; Pks13 thioesterase: -2.401%; LiHisRS: 13.21%; PfKRS1: 1.258%
* CCc1c(C)[nH]c(C(C)(N)CC)nc1=O (stereo unspecified) : MtTrpRS: -3.072%; Pks13 thioesterase: -15.16%; LiHisRS: 23.53%; PfKRS1: 16.34%
* CN(C)CC(O)Cn1cc(NCc2ccc(Br)cc2)cn1 (stereo unspecified) : MtTrpRS: 2.877%; Pks13 thioesterase: -4.3%; LiHisRS: 5.882%; PfKRS1: 1.132%
* O=C(Nc1ncn(CC(=O)N2CCCCCC2)n1)C1CCCO1 (stereo unspecified) : MtTrpRS: -1.258%; Pks13 thioesterase: 2.898%; LiHisRS: 13.6%; PfKRS1: -1.758%
* O=C(c1cscn1)N1CC[C@]2(C[C@@H](OCCN3CCCC3)CO2)C1 : MtTrpRS: -2.643%; Pks13 thioesterase: -27.62%; LiHisRS: 12.41%; PfKRS1: -6.661%
* Oc1cc(C2CCCCN2C2CCCC2)nc(-c2cccnc2)n1 (stereo unspecified) : MtTrpRS: -3.473%; Pks13 thioesterase: 2.147%; LiHisRS: 11.35%; PfKRS1: 1.087%
* Cc1ccccc1C1(C(=O)NCCN2CCC(C)CC2)CCOCC1 : MtTrpRS: 12.17%; Pks13 thioesterase: -29.78%; LiHisRS: 12.04%; PfKRS1: -2.563%
* CN1C[C@H]2CN(C(=O)c3ccc4c(c3)OCO4)CCN2C1=O : MtTrpRS: 2.334%; Pks13 thioesterase: -23.47%; LiHisRS: 27.78%; PfKRS1: 4.073%
* Cc1noc(C)c1CN1C[C@@H]2COC[C@H](C(=O)N3CCCO3)[C@@H]2C1 : MtTrpRS: 10.32%; Pks13 thioesterase: -17.7%; LiHisRS: 20%; PfKRS1: 3.493%
* CN(C)CCNCCC(Cc1ccccc1)C1CCOC(C)(C)C1 (stereo unspecified) : MtTrpRS: -4.432%; Pks13 thioesterase: -2.053%; LiHisRS: 18.75%; PfKRS1: 2.534%
* CCN(Cc1ccncc1)C(=O)CCn1c(C)cc2ccccc21 : MtTrpRS: -1.487%; Pks13 thioesterase: 3.813%; LiHisRS: -38.24%; PfKRS1: 8.196%

For reference, 4 entries once more:

COc1ccccc1CC(=O)NC(CC(=O)O)c1ccc(F)cc1 (stereo unspecified) read MtTrpRS: -2.387%; Pks13 thioesterase: -29.06%; LiHisRS: 17.33%; PfKRS1: 4.056%.
O=C(c1cc(F)ccc1O)N1CCN(C(=O)C2CCC2)CC1 read MtTrpRS: 9.02%; Pks13 thioesterase: -28.3%; LiHisRS: 18.99%; PfKRS1: 4.468%.
O=C(c1cscn1)N1CC[C@]2(C[C@@H](OCCN3CCCC3)CO2)C1 read MtTrpRS: -2.643%; Pks13 thioesterase: -27.62%; LiHisRS: 12.41%; PfKRS1: -6.661%.
CN(C)c1nc2c(c(N3CCC(O)CC3)n1)CN(CC1CCOC1)CC2 (stereo unspecified) read MtTrpRS: -3.958%; Pks13 thioesterase: 11.04%; LiHisRS: 8.197%; PfKRS1: -0.05562%.